According to US20210261642A1, “SOLUBILITY OF GLP-1 PEPTIDE” (Novo Nordisk A/S, priority 2017, published 2021):
Further values from the same series stand in other lists.

Test: Assay (I): Determination of Solubility (96-well plate, pH 3.0-11.0, organic solvent 0-70% w/w, UV absorption at 280 nm)
Format: physicochemical
Experimental: Assay (I): Determination of Solubility
96-Well Plate Preparation
96-well plates containing target peptide in a solid form were prepared in one of two ways:
Method 1 (evaporation): Addition of 100 μl stock solution of said peptide at a concentration of 4-6 mg/ml to each well of a 96-well half area plate (150 μl well size). Subsequently the solvent was evaporated by applying a vacuum until the solvent was completely removed.
Method 2 (precipitation): Addition of a certain volume of a stock solution of said peptide containing to each well of a 96-well half area plate followed by the addition of a certain volume of concentrated phosphoric acid to obtain a pH of 4.6 followed by addition of a certain volume of ethanol resulting in a final ethanol concentration of 20% v/v. Subsequently the plate was stored at 4° C. for 1 h and then centrifuged at 4,000 rpm for 20 min. Finally the supernatant was removed. The concentration of the stock solution was chosen in a way that the final amount of peptide after supernatant removal was >0.4 mg per well.
In both cases the stock solution was prepared by adding de-ionized water to a certain amount of powder of said peptide followed by a stepwise addition of small amounts of a concentrated sodium hydroxide solution until said peptide was completely in solution.
To determine solubility of a target peptide at different pH and organic solvent concentrations, two different buffer systems were used in independent experiments to cover the whole range from pH 3.0 to pH 11.0. Buffer system 1 covers pH 3.0-7.5 and buffer system 2 covers pH 7.5-11.0. For each buffer system 96 different solvent compositions were premixed in the following way: • 1. A low pH buffer (adjusted to either pH 3.0 or pH 7.5) and a high pH buffer (adjusted to either pH 7.5 or pH 11.0) were mixed at 8 different ratios to obtain values between pH 3.0 and pH 7.5 or pH 7.5 and pH 11.0, respectively. The total volume after mixing was 300 μl. • 2. 12 different amounts of organic solvent were then added to these buffers to obtain organic solvent (e.g. ethanol) concentrations between 0 and 70% w/w. • 3. Water was then added to obtain a total weight of 1.0 g of solvent in each well.
After preparing the 96 different solvent systems, 100 μl of each system was transferred to the 96-well plate containing the solid form of the target peptide (prepared as described in the section “96-well plate preparation”). The plate was then stored at a given temperature (between 5° C. and 70° C.) for a given time on a rotating shaker set to 400 rpm. At regular time intervals the plate was centrifuged (4,000 rpm for 10 min) and a 10 μl sample was taken from each well. The samples were then analysed by UV absorption at 280 nm for peptide quantification. Peptide concentration results are given as UV absorption at 280 nm of the sample subtracted UV absorption at 280 nm of a well comprising 10 μl water.
The buffers used were as follows: • Buffer system 1 (for the pH range from pH 3.0-7.5)
• Buffer system 2 (for the pH ranae from pH 7.5-11.0)
Solubility of liraglutide was determined using Assay (I) described herein. Liraglutide was prepared using Method 1 (evaporation) or Method 2 (precipitation) as described in subsection “96-well plate preparation”.

[1] = DMF 63.6% w/w, pH 10.5, RT, Method 1 (evaporation)
[2] = DMF 63.6% w/w, pH 11.0, RT, Method 1 (evaporation)
[3] = DMF 70.0% w/w, pH 3.1, RT, Method 1 (evaporation)
[4] = DMF 70.0% w/w, pH 4.8, RT, Method 1 (evaporation)
[5] = DMF 70.0% w/w, pH 5.8, RT, Method 1 (evaporation)
[6] = DMF 70.0% w/w, pH 6.3, RT, Method 1 (evaporation)
[7] = DMF 70.0% w/w, pH 6.7, RT, Method 1 (evaporation)
[8] = DMF 70.0% w/w, pH 6.9, RT, Method 1 (evaporation)
[9] = DMF 70.0% w/w, pH 7.2, RT, Method 1 (evaporation)
[10] = DMF 70.0% w/w, pH 7.5, RT, Method 1 (evaporation)
[11] = DMF 70.0% w/w, pH 8.0, RT, Method 1 (evaporation)
[12] = DMF 70.0% w/w, pH 8.5, RT, Method 1 (evaporation)
[13] = DMF 70.0% w/w, pH 9.0, RT, Method 1 (evaporation)
[14] = DMF 70.0% w/w, pH 9.5, RT, Method 1 (evaporation)
[15] = DMF 70.0% w/w, pH 10.0, RT, Method 1 (evaporation)
[16] = DMF 70.0% w/w, pH 10.5, RT, Method 1 (evaporation)
[17] = DMF 70.0% w/w, pH 11.0, RT, Method 1 (evaporation)
[18] = MeCN 0.0% w/w, pH 3.0, 5° C., Method 1
[19] = MeCN 0.0% w/w, pH 3.0, 70° C., Method 1
[20] = MeCN 0.0% w/w, pH 3.6, 5° C., Method 1
[21] = MeCN 0.0% w/w, pH 3.6, 70° C., Method 1
[22] = MeCN 0.0% w/w, pH 4.3, 70° C., Method 1
[23] = MeCN 0.0% w/w, pH 4.9, 70° C., Method 1
[24] = MeCN 0.0% w/w, pH 4.9, RT, Method 1
[25] = MeCN 0.0% w/w, pH 5.6, 70° C., Method 1
[26] = MeCN 0.0% w/w, pH 5.6, RT, Method 1
[27] = MeCN 0.0% w/w, pH 6.2, 70° C., Method 1
[28] = MeCN 0.0% w/w, pH 6.2, RT, Method 1
[29] = MeCN 0.0% w/w, pH 6.9, 70° C., Method 1
[30] = MeCN 0.0% w/w, pH 6.9, RT, Method 1
[31] = MeCN 0.0% w/w, pH 7.5, 70° C., Method 1
[32] = MeCN 0.0% w/w, pH 7.5, RT, Method 1
[33] = MeCN 0.0% w/w, pH 8.0, 70° C., Method 1
[34] = MeCN 0.0% w/w, pH 8.0, RT, Method 1
[35] = MeCN 0.0% w/w, pH 8.5, 70° C., Method 1
[36] = MeCN 0.0% w/w, pH 8.5, RT, Method 1
[37] = MeCN 0.0% w/w, pH 9.0, 70° C., Method 1
[38] = MeCN 0.0% w/w, pH 9.0, RT, Method 1
[39] = MeCN 0.0% w/w, pH 9.5, 70° C., Method 1
[40] = MeCN 0.0% w/w, pH 9.5, RT, Method 1
[41] = MeCN 0.0% w/w, pH 10.0, 70° C., Method 1
[42] = MeCN 0.0% w/w, pH 10.0, RT, Method 1

Peptide concentration after 180 min (DMF 63.6% w/w, pH 10.0, RT, Method 1 (evaporation)): >4.0 mg/mL | Peptide concentration after 5 min [1]: 3.5 mg/mL | Peptide concentration after 180 min [1]: >4.0 mg/mL | Peptide concentration after 5 min [2]: 1.3 mg/mL | Peptide concentration after 180 min [2]: >4.0 mg/mL | Peptide concentration after 5 min [3]: 0.3 mg/mL | Peptide concentration after 180 min [3]: 0.3 mg/mL | Peptide concentration after 24 h [3]: 0.4 mg/mL | Peptide concentration after 5 min [4]: 0.2 mg/mL | Peptide concentration after 180 min [4]: 0.2 mg/mL | Peptide concentration after 24 h [4]: 0.3 mg/mL | Peptide concentration after 5 min [5]: 0.2 mg/mL | Peptide concentration after 180 min [5]: 0.3 mg/mL | Peptide concentration after 24 h [5]: 0.4 mg/mL | Peptide concentration after 5 min [6]: 0.2 mg/mL | Peptide concentration after 180 min [6]: 0.3 mg/mL | Peptide concentration after 24 h [6]: 0.3 mg/mL | Peptide concentration after 5 min [7]: 0.5 mg/mL | Peptide concentration after 180 min [7]: 0.3 mg/mL | Peptide concentration after 24 h [7]: 0.3 mg/mL | Peptide concentration after 5 min [8]: 0.5 mg/mL | Peptide concentration after 180 min [8]: 0.4 mg/mL | Peptide concentration after 24 h [8]: 0.4 mg/mL | Peptide concentration after 5 min [9]: 0.3 mg/mL | Peptide concentration after 180 min [9]: 0.4 mg/mL | Peptide concentration after 24 h [9]: 0.4 mg/mL | Peptide concentration after 5 min [10]: 1.5 mg/mL | Peptide concentration after 180 min [10]: >4.0 mg/mL | Peptide concentration after 5 min [11]: 1.2 mg/mL | Peptide concentration after 180 min [11]: >4.0 mg/mL | Peptide concentration after 5 min [12]: 2.9 mg/mL | Peptide concentration after 180 min [12]: >4.0 mg/mL | Peptide concentration after 5 min [13]: 2.6 mg/mL | Peptide concentration after 180 min [13]: >4.0 mg/mL | Peptide concentration after 5 min [14]: 3.2 mg/mL | Peptide concentration after 180 min [14]: >4.0 mg/mL | Peptide concentration after 5 min [15]: 3.4 mg/mL | Peptide concentration after 180 min [15]: >4.0 mg/mL | Peptide concentration after 5 min [16]: 3.5 mg/mL | Peptide concentration after 180 min [16]: >4.0 mg/mL | Peptide concentration after 5 min [17]: 1.1 mg/mL | Peptide concentration after 180 min [17]: >4.0 mg/mL | Peptide concentration after 5 min [18]: 0.1 mg/mL | Peptide concentration after 180 min [18]: 0.1 mg/mL | Peptide concentration after 24 h [18]: 0.2 mg/mL | Peptide concentration after 5 min [19]: 1.0 mg/mL | Peptide concentration after 180 min [19]: 1.5 mg/mL | Peptide concentration after 5 min [20]: 0.0 mg/mL | Peptide concentration after 180 min [20]: 0.1 mg/mL | Peptide concentration after 24 h [20]: 0.1 mg/mL | Peptide concentration after 5 min [21]: 0.0 mg/mL | Peptide concentration after 180 min [21]: 0.2 mg/mL | Peptide concentration after 5 min [22]: 0.1 mg/mL | Peptide concentration after 180 min [22]: 0.1 mg/mL | Peptide concentration after 5 min [23]: 0.9 mg/mL | Peptide concentration after 180 min [23]: 0.0 mg/mL | Peptide concentration after 5 min [24]: 0.3 mg/mL | Peptide concentration after 180 min [24]: 0.1 mg/mL | Peptide concentration after 5 min [25]: 0.3 mg/mL | Peptide concentration after 180 min [25]: 1.7 mg/mL | Peptide concentration after 5 min [26]: 0.2 mg/mL | Peptide concentration after 180 min [26]: 0.1 mg/mL | Peptide concentration after 5 min [27]: 0.8 mg/mL | Peptide concentration after 180 min [27]: >4.0 mg/mL | Peptide concentration after 5 min [28]: 0.1 mg/mL | Peptide concentration after 180 min [28]: 0.4 mg/mL | Peptide concentration after 5 min [29]: 2.0 mg/mL | Peptide concentration after 180 min [29]: >4.0 mg/mL | Peptide concentration after 5 min [30]: 0.6 mg/mL | Peptide concentration after 180 min [30]: 3.1 mg/mL | Peptide concentration after 5 min [31]: 1.8 mg/mL | Peptide concentration after 180 min [31]: >4.0 mg/mL | Peptide concentration after 5 min [32]: 0.8 mg/mL | Peptide concentration after 180 min [32]: 3.0 mg/mL | Peptide concentration after 5 min [33]: 2.2 mg/mL | Peptide concentration after 180 min [33]: >4.0 mg/mL | Peptide concentration after 5 min [34]: 0.6 mg/mL | Peptide concentration after 180 min [34]: 2.5 mg/mL | Peptide concentration after 24 h [34]: >4.0 mg/mL | Peptide concentration after 5 min [35]: 1.9 mg/mL | Peptide concentration after 180 min [35]: >4.0 mg/mL | Peptide concentration after 5 min [36]: 0.6 mg/mL | Peptide concentration after 180 min [36]: 3.5 mg/mL | Peptide concentration after 24 h [36]: >4.0 mg/mL | Peptide concentration after 5 min [37]: 2.1 mg/mL | Peptide concentration after 180 min [37]: >4.0 mg/mL | Peptide concentration after 5 min [38]: 0.7 mg/mL | Peptide concentration after 180 min [38]: 2.9 mg/mL | Peptide concentration after 24 h [38]: >4.0 mg/mL | Peptide concentration after 5 min [39]: 2.3 mg/mL | Peptide concentration after 180 min [39]: >4.0 mg/mL | Peptide concentration after 5 min [40]: 0.8 mg/mL | Peptide concentration after 180 min [40]: 2.8 mg/mL | Peptide concentration after 24 h [40]: >4.0 mg/mL | Peptide concentration after 5 min [41]: 2.2 mg/mL | Peptide concentration after 180 min [41]: >4.0 mg/mL | Peptide concentration after 5 min [42]: 0.9 mg/mL | Peptide concentration after 180 min [42]: 3.4 mg/mL | Peptide concentration after 24 h [42]: >4.0 mg/mL
SMILES: CCCCCCCCCCCCCCCC(=O)N[C@@H](CCC(=O)NCCCC[C@H](NC(=O)[C@H](C)NC(=O)[C@H](C)NC(=O)[C@H](CCC(N)=O)NC(=O)CNC(=O)[C@H](CCC(=O)O)NC(=O)[C@H](CC(C)C)NC(=O)[C@H](Cc1ccc(O)cc1)NC(=O)[C@H](CO)NC(=O)[C@H](CO)NC(=O)[C@@H](NC(=O)[C@H](CC(=O)O)NC(=O)[C@H](CO)NC(=O)[C@@H](NC(=O)[C@H](Cc1ccccc1)NC(=O)[C@@H](NC(=O)CNC(=O)[C@H](CCC(=O)O)NC(=O)[C@H](C)NC(=O)[C@@H](N)Cc1cnc[nH]1)[C@@H](C)O)[C@@H](C)O)C(C)C)C(=O)N[C@@H](CCC(=O)O)C(=O)N[C@@H](Cc1ccccc1)C(=O)N[C@H](C(=O)N[C@@H](C)C(=O)N[C@@H](Cc1c[nH]c2ccccc12)C(=O)N[C@@H](CC(C)C)C(=O)N[C@H](C(=O)N[C@@H](CCCNC(=N)N)C(=O)NCC(=O)N[C@@H](CCCNC(=N)N)C(=O)NCC(=O)O)C(C)C)[C@@H](C)CC)C(=O)O [liraglutide, Arg34,Lys26-(N-epsilon-(gamma-L-glutamyl(N-alfa-hexadecanoyl)))-GLP-1(7-37)]
